From US11286271B2, “Iridium (III) complexes containing N-heterocyclic carbene ligand, synthesis, and their use thereof in cancer treatment” (The University of Hong Kong, priority 2018, dated 2022)
At least one compound was matched to its structure with a doubt left.

Columns and labels:
Format in all cases: cell-based, human
HeLa = experiment: In vitro cytotoxicity, MTT assay, HeLa; settings: 72 h incubation
NCI-H460 cells = experiment: Cellular uptake by iridium content in cellular proteins; settings: complex 1 μM, 2 h, μg iridium per g cellular proteins
HCT116 = experiment: In vitro cytotoxicity, MTT assay, HCT116; settings: 72 h incubation
HCC827 = experiment: In vitro cytotoxicity, MTT assay, HCC827; settings: 72 h incubation
[1] = test system: NCI-H460 lung cancer cells; experiment: Cytotoxicity and photocytotoxicity, MTT assay, NCI-H460 in dark or under visible light; settings: 72 h
Procedure: FIG. 12A-12G. Plots of cell viability of NCI-H460 lung cancer cells upon 72 h treatment with the iridium(III) porphyrin complexes and cis-platin in dark or under light irradiation (2.8 mW cm^−2 for 1 h).
NCI-H460 lung cancer cells incubated with the complexes were exposed to a low dose of visible light irradiation (2.8 mW cm^−2) for 1 h. […] The cytotoxicity of [Ir^III(oep)Cl(CO)] was also evaluated for comparison.

CCC1=C(CC)C2=NC1=Cc1c(CC)c(CC)c3[n]1[Ir+][n]1c(c(CC)c(CC)c1=CC1=NC(=C3)C(CC)=C1CC)=C2.F[B-](F)(F)F.[C-]#[N+]c1ccc(OC)cc1.[C-]#[N+]c1ccc(OC)cc1 [[Ir^III(ope)(CNPhOMe)2](BF4)]
IC50 HeLa (HeLa): 7.9^±0.5 μM | Uptake (iridium content in the cellular proteins) (NCI-H460 cells): 116.2^±20.6 μg/g | IC50 HCT116 (HCT116): 23^±3.3 μM | IC50 HCC827 (HCC827): 50^±3.6 μM | IC50 NCI-H460 (dark) ([1]; dark): 2.9^±0.02 μM | IC50 NCI-H460 (light) ([1]; visible light irradiation 2.8 mW cm^−2 for 1 h): 0.12^±0.02 μM
